According to PMC6527865:
No constants are given. Whether binding was seen depends on the method and setting. In cells and extracts the contact can be indirect. Some entries that bind do so weakly or less than the wild type. For some assays here: Tags and fused reporters may be left off the sequences shown.

Sequences of proteins named here, by UniProt entry; tags and fusion partners are left off. A change or cut given only in a name is not applied to a line headed by its entry.
UniProt P32597: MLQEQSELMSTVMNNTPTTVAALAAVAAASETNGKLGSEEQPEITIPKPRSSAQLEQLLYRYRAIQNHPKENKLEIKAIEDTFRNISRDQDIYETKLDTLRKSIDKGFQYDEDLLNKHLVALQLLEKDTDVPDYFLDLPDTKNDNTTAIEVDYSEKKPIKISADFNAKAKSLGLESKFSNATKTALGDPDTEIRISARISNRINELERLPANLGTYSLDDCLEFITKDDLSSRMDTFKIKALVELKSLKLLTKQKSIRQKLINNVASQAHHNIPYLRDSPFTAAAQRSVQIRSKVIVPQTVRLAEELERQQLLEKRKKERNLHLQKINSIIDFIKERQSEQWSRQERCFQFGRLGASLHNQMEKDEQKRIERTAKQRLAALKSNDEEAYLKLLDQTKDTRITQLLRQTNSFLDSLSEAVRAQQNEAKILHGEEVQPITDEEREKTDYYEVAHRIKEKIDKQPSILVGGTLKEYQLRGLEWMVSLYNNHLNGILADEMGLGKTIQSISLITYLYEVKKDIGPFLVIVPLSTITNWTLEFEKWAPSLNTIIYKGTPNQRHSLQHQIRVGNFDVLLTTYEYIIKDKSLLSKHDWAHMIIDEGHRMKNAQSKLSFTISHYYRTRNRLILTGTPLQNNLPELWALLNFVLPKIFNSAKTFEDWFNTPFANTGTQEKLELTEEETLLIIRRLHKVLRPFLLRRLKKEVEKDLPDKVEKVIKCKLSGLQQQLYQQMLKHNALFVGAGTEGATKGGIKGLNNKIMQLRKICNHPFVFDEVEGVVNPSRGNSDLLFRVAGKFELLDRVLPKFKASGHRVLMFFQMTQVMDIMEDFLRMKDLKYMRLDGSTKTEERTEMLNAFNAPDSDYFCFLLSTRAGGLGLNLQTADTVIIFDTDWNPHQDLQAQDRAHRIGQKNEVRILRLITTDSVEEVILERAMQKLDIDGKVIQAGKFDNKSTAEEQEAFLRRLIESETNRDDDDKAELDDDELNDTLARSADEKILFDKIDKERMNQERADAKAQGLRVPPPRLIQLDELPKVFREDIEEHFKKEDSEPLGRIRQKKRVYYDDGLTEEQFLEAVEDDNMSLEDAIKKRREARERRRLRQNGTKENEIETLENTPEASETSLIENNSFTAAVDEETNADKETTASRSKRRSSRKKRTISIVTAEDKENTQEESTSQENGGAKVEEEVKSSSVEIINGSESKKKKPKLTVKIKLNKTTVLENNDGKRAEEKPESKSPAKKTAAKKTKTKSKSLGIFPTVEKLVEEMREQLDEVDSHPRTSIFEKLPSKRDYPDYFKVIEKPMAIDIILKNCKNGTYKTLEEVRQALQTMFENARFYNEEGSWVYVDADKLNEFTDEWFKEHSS

T1: full-length Scc2 with a C-terminal Pk epitope tag (S. cerevisiae) (UniProt Q04002)
T1 sequence: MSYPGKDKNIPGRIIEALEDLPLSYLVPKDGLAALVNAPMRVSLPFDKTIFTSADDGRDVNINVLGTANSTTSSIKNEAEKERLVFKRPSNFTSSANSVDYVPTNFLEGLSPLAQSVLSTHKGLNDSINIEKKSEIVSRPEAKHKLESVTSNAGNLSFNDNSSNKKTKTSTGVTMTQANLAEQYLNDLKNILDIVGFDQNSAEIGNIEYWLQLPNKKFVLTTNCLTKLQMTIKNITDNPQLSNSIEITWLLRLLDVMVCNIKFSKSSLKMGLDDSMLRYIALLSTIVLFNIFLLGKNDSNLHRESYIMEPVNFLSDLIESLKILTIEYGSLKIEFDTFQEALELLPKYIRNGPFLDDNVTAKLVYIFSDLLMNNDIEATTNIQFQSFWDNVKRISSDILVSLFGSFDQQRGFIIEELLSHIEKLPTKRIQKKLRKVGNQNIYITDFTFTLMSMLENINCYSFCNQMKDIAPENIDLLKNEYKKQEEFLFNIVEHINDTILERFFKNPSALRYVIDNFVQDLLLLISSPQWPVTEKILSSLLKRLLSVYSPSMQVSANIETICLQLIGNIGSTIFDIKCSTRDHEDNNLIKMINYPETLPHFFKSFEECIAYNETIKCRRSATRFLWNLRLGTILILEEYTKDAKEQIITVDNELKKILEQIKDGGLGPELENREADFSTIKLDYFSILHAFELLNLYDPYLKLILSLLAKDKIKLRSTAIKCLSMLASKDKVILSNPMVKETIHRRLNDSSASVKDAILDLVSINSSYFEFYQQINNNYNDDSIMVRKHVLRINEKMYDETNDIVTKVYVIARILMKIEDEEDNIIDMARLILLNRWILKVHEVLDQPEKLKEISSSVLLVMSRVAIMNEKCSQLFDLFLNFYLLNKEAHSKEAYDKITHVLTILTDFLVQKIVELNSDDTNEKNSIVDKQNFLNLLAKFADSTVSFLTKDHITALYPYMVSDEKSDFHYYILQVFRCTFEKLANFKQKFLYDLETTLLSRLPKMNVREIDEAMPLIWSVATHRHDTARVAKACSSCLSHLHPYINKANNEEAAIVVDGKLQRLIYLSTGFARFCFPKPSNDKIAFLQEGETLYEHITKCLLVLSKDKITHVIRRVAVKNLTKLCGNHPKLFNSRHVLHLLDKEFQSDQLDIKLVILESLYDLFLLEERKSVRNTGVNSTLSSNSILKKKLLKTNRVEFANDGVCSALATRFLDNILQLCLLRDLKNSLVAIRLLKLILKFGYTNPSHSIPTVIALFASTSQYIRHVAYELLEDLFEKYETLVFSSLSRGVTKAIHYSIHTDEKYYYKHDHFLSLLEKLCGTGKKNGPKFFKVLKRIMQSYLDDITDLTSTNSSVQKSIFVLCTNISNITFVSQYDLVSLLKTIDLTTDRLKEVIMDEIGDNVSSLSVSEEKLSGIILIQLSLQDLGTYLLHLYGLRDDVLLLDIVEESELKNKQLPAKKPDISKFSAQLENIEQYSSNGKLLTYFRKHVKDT


What was measured:
[1] = target: T1, full-length Scc2 with a C-terminal Pk epitope tag (S. cerevisiae); assay: co-IP; full-length Scc2, Scc2N or Scc2C immunoprecipitated from extracts of cells depleted of endogenous Scc2; co-immunoprecipitation of Scc4 (Figure S5B)
[2] = target: Sth1 fused to a protein A tag (S. cerevisiae) (UniProt P32597); assay: co-IP; protein A-tagged Sth1 precipitated on IgG coated Dynabeads from cell extracts in EBX buffer (50 mM HEPES-KOH pH 7.5, 100 mM KCl, 2.5 mM MgCl2, 10% glycerol, 0.25% Triton X-100, 1 mM DTT, benzonase); cells released from G1 into nocodazole arrest; also with Scc1 repressed, with Scc2 depleted, in G1 arrest, or with endogenous Scc2 replaced by full-length Scc2-Pk; immunoblot
[3] = target: Sth1^K501R fused to a protein A tag (S. cerevisiae) (UniProt P32597); assay: as above

binding [1] | binding [2] | binding [3] | Binder
binds | binds | binds | Scc4 (protein, UniProt P40090 1-624) MENLGDKLSISQVYHLAQEYRDHAYSIANKIGSEEGLKQYYGLMNMSIQMFQLLKTKCTLSVLEDSKVTFEMVELLIQETYNFDLAELYISSLKERLQTHQSDTDLVEEIMRCEFLLLHDLPLMRDSKFHYKIALRNCNELVQYMVNLQDELYQNWASVFQYVGVMLCIKLKQHRRVKTSFHGLLSQCREKSQWKWFLNLCYVNYLLNERFPIPEDALQELRSTELHTVGPELYAWKLALEMVIQLCKDGNITDHLNEFKNFFDTNKQSLVTNEGKGCVIKIMPRIALKVELPMIFHYKELKNILLLLQSVSYIVNCYDEKGNFSRKFLPKVYSTTQKLIKNIAAGGVSMNELDSRIQTYKSILEFCEFYKVWEQTLLKGAVVTTESPKLGPSPGYVRLLQAMKVQFEGGGAVEEYTRLAQSGGTSSEVKMISLLNCYTVQAARVSRCSGDKQGELVEQCNKVWLQVEKLLQETDLQFNPIWECTVTILWLFSHFEPFSWNPLPCSDKQRAEYVSKLREFYSSNKFVAGEAVADNRFKLKKALLLQILVNYLGGRMLEHDLGEIYAISAKCFDMCRQQGGMRKVQYVIGIWHLMNCTVAMRGKDVALTNAKLEALVKQITSVKQ
 | binds |  | full-length Scc2 with a C-terminal Pk epitope tag (protein, UniProt Q04002 1-1493) MSYPGKDKNIPGRIIEALEDLPLSYLVPKDGLAALVNAPMRVSLPFDKTIFTSADDGRDVNINVLGTANSTTSSIKNEAEKERLVFKRPSNFTSSANSVDYVPTNFLEGLSPLAQSVLSTHKGLNDSINIEKKSEIVSRPEAKHKLESVTSNAGNLSFNDNSSNKKTKTSTGVTMTQANLAEQYLNDLKNILDIVGFDQNSAEIGNIEYWLQLPNKKFVLTTNCLTKLQMTIKNITDNPQLSNSIEITWLLRLLDVMVCNIKFSKSSLKMGLDDSMLRYIALLSTIVLFNIFLLGKNDSNLHRESYIMEPVNFLSDLIESLKILTIEYGSLKIEFDTFQEALELLPKYIRNGPFLDDNVTAKLVYIFSDLLMNNDIEATTNIQFQSFWDNVKRISSDILVSLFGSFDQQRGFIIEELLSHIEKLPTKRIQKKLRKVGNQNIYITDFTFTLMSMLENINCYSFCNQMKDIAPENIDLLKNEYKKQEEFLFNIVEHINDTILERFFKNPSALRYVIDNFVQDLLLLISSPQWPVTEKILSSLLKRLLSVYSPSMQVSANIETICLQLIGNIGSTIFDIKCSTRDHEDNNLIKMINYPETLPHFFKSFEECIAYNETIKCRRSATRFLWNLRLGTILILEEYTKDAKEQIITVDNELKKILEQIKDGGLGPELENREADFSTIKLDYFSILHAFELLNLYDPYLKLILSLLAKDKIKLRSTAIKCLSMLASKDKVILSNPMVKETIHRRLNDSSASVKDAILDLVSINSSYFEFYQQINNNYNDDSIMVRKHVLRINEKMYDETNDIVTKVYVIARILMKIEDEEDNIIDMARLILLNRWILKVHEVLDQPEKLKEISSSVLLVMSRVAIMNEKCSQLFDLFLNFYLLNKEAHSKEAYDKITHVLTILTDFLVQKIVELNSDDTNEKNSIVDKQNFLNLLAKFADSTVSFLTKDHITALYPYMVSDEKSDFHYYILQVFRCTFEKLANFKQKFLYDLETTLLSRLPKMNVREIDEAMPLIWSVATHRHDTARVAKACSSCLSHLHPYINKANNEEAAIVVDGKLQRLIYLSTGFARFCFPKPSNDKIAFLQEGETLYEHITKCLLVLSKDKITHVIRRVAVKNLTKLCGNHPKLFNSRHVLHLLDKEFQSDQLDIKLVILESLYDLFLLEERKSVRNTGVNSTLSSNSILKKKLLKTNRVEFANDGVCSALATRFLDNILQLCLLRDLKNSLVAIRLLKLILKFGYTNPSHSIPTVIALFASTSQYIRHVAYELLEDLFEKYETLVFSSLSRGVTKAIHYSIHTDEKYYYKHDHFLSLLEKLCGTGKKNGPKFFKVLKRIMQSYLDDITDLTSTNSSVQKSIFVLCTNISNITFVSQYDLVSLLKTIDLTTDRLKEVIMDEIGDNVSSLSVSEEKLSGIILIQLSLQDLGTYLLHLYGLRDDVLLLDIVEESELKNKQLPAKKPDISKFSAQLENIEQYSSNGKLLTYFRKHVKDT
 | binds |  | Scc1 (protein, UniProt Q12158 1-566) MVTENPQRLTVLRLATNKGPLAQIWLASNMSNIPRGSVIQTHIAESAKEIAKASGCDDESGDNEYITLRTSGELLQGIVRVYSKQATFLLTDIKDTLTKISMLFKTSQKMTSTVNRLNTVTRVHQLMLEDAVTEREVLVTPGLEFLDDTTIPVGLMAQENSMERKVQGAAPWDTSLEVGRRFSPDEDFEHNNLSSMNLDFDIEEGPITSKSWEEGTRQSSRNFDTHENYIQDDDFPLDDAGTIGWDLGITEKNDQNNDDDDNSVEQGRRLGESIMSEEPTDFGFDLDIEKEAPAGNIDTITDAMTESQPKQTGTRRNSKLLNTKSIQIDEETENSESIASSNTYKEERSNNLLTPQPTNFTTKRLWSEITESMSYLPDPILKNFLSYESLKKRKIHNGREGSIEEPELNVSLNLTDDVISNAGTNDNSFNELTDNMSDFVPIDAGLNEAPFPEENIIDAKTRNEQTTIQTEKVRPTPGEVASKAIVQMAKILRKELSEEKEVIFTDVLKSQANTEPENITKREASRGFFDILSLATEGCIGLSQTEAFGNIKIDAKPALFERFINA
